Test results: publication PMC5703960

Chains of the proteins cited; added tags and fusions are not shown.
UniProt O60260: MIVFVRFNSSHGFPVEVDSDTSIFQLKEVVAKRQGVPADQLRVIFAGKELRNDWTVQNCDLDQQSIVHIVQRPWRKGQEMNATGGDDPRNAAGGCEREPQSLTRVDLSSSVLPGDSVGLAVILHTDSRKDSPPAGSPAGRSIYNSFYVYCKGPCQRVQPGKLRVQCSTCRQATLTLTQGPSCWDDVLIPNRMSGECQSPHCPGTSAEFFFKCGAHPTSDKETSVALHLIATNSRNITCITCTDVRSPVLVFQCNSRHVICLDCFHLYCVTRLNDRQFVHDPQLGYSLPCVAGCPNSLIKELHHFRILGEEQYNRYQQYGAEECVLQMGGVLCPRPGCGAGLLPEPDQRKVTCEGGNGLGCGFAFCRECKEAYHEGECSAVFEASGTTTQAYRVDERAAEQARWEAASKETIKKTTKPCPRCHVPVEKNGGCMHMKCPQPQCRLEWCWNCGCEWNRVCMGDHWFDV
UniProt P55036: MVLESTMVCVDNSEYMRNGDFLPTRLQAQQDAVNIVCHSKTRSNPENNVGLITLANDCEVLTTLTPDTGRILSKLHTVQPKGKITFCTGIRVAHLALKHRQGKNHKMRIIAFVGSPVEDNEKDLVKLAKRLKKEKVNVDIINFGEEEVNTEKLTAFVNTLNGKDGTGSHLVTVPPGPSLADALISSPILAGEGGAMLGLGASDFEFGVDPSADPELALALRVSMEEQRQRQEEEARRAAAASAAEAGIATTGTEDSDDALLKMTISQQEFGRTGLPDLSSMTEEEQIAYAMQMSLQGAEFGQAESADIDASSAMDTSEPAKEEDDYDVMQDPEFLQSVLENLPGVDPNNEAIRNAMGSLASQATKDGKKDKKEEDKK

Target: Myc-tagged Parkin (pLPCX-Myc-Parkin), wild type (human) (UniProt O60260)
Assay: affinity purification with mass spectrometry; MCF7 cells transduced with pLPCX-Myc-Parkin or empty vector, MG132 (10 μM) 8 h; two sequential rounds of IP (anti-Myc beads, elution with Myc peptide, then anti-Parkin antibody), LC-MS/MS

- binding: binds
Substance: Rpn10 (from UniProt P55036 1-377)

Results are given in words; binding and its absence hold for the method and conditions named. Binding seen in cells or lysates may run through a third protein. Here binding means that the protein was enriched with, or labelled near, the bait; the list need not be complete.
